Laboratory results: publication PMC6416313
These are yes or no findings as the source states them, for the method shown. Binding seen in cells or lysates may run through a third protein. Some binding calls cover weakened binding; strength is not graded here. Where a sequence is shown, tags or fusion partners need not be part of it.

Amino acid sequences for entries named in this document (tags omitted). Residues count along the entry.
UniProt P19490, residues 19-907: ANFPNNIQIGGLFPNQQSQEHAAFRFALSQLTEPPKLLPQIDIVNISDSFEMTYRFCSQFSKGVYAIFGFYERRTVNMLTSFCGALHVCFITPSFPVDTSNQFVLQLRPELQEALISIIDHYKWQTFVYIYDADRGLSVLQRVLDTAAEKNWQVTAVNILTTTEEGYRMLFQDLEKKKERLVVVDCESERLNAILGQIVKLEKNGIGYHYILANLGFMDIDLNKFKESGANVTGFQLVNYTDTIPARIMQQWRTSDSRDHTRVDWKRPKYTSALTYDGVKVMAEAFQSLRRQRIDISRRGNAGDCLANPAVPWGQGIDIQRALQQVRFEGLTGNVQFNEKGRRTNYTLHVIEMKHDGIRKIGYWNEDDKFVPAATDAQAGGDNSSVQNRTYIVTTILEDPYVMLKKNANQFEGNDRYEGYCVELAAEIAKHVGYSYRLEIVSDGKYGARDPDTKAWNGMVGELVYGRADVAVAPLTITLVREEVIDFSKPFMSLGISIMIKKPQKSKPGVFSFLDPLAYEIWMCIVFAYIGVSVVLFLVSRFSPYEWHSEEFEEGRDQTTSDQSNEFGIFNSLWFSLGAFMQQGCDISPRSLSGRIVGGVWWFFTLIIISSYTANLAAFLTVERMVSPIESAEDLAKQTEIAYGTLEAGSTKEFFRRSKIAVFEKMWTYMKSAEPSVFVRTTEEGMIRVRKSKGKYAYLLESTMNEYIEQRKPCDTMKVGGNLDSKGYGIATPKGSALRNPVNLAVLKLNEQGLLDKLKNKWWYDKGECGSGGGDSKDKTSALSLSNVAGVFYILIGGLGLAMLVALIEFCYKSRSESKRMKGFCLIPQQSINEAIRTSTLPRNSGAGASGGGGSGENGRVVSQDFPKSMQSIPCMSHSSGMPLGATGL
UniProt P19491, residues 22-883: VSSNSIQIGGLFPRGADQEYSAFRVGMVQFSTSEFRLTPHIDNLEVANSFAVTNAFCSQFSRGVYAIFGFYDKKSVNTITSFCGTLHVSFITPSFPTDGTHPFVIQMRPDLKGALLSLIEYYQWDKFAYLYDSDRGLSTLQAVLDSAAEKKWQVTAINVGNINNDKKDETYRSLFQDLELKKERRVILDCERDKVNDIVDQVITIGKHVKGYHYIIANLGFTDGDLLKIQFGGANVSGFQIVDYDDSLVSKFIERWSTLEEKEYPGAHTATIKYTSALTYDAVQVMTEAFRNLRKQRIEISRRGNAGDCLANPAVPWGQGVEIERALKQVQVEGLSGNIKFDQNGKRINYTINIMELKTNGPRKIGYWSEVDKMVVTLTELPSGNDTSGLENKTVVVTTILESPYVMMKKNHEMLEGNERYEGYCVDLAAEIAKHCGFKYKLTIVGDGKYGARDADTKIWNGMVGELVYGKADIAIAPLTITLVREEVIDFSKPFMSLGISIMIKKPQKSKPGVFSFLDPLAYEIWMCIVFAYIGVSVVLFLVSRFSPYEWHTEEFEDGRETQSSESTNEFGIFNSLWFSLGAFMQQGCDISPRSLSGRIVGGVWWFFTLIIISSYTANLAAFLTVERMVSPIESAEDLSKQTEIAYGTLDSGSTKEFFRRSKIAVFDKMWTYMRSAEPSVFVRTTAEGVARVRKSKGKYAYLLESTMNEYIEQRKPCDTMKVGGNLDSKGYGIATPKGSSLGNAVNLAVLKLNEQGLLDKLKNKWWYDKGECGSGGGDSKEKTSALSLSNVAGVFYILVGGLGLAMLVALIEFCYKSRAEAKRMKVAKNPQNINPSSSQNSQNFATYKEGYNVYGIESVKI

Biological target: T1, myc-Phldb2 (UniProt Q8K1N2)
T1 sequence: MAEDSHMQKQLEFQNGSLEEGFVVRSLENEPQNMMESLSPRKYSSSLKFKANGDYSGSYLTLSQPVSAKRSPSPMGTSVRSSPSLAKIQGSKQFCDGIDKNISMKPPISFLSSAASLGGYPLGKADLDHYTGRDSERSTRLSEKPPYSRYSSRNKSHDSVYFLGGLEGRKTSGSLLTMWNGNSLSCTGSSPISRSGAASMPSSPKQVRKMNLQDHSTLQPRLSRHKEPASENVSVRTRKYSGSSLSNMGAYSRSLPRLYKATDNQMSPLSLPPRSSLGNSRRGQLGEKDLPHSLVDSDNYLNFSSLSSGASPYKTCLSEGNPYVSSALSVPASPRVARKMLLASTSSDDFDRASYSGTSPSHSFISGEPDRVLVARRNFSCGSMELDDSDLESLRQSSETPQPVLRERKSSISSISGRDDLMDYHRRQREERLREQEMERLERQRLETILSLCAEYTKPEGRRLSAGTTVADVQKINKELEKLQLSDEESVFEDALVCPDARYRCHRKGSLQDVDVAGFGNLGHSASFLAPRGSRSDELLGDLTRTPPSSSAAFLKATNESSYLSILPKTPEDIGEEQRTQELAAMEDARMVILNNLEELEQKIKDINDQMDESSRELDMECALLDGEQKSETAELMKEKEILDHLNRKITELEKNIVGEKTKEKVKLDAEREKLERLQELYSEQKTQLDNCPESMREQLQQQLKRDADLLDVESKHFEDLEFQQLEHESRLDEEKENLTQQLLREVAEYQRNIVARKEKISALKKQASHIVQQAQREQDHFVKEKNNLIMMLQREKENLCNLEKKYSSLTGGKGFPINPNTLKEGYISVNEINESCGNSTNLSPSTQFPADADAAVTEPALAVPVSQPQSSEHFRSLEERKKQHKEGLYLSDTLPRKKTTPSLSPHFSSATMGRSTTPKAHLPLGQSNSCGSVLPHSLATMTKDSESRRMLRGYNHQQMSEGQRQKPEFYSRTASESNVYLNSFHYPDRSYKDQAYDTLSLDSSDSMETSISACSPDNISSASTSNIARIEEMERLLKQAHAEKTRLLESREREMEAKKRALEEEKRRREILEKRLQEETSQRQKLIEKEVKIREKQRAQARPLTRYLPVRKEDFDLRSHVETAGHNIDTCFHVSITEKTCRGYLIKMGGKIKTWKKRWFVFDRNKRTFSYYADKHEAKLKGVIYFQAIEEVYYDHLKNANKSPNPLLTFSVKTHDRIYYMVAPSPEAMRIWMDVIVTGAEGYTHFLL
Assay: co-IP; myc-Phldb2 (or myc-mock) and GFP-GluA1 or GFP-GluA2 co-transfected in COS-7 cells; lysates immunoprecipitated with anti-myc antibody

Row | binding | Substance
1 | binds | GFP-GluA1 (from UniProt P19490 19-907) (receptor)
2 | binds | GFP-GluA2 (from UniProt P19491 22-883) (receptor)
